Measurements taken from article doi:10.1101/2024.04.17.589979.

By UniProt entry, the sequences of proteins in these tests, tags left out. Where a name states a change or a piece, a line headed by the entry shows the natural chain unless it says otherwise.
UniProt P09038: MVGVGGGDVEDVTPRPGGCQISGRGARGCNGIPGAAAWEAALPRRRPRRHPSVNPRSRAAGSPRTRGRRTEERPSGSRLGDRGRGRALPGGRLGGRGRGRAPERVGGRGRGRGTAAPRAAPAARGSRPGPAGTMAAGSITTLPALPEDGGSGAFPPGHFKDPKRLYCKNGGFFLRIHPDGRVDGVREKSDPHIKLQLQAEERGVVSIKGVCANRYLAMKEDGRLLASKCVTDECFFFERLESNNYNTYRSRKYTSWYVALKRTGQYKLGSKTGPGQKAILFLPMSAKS
UniProt P08514: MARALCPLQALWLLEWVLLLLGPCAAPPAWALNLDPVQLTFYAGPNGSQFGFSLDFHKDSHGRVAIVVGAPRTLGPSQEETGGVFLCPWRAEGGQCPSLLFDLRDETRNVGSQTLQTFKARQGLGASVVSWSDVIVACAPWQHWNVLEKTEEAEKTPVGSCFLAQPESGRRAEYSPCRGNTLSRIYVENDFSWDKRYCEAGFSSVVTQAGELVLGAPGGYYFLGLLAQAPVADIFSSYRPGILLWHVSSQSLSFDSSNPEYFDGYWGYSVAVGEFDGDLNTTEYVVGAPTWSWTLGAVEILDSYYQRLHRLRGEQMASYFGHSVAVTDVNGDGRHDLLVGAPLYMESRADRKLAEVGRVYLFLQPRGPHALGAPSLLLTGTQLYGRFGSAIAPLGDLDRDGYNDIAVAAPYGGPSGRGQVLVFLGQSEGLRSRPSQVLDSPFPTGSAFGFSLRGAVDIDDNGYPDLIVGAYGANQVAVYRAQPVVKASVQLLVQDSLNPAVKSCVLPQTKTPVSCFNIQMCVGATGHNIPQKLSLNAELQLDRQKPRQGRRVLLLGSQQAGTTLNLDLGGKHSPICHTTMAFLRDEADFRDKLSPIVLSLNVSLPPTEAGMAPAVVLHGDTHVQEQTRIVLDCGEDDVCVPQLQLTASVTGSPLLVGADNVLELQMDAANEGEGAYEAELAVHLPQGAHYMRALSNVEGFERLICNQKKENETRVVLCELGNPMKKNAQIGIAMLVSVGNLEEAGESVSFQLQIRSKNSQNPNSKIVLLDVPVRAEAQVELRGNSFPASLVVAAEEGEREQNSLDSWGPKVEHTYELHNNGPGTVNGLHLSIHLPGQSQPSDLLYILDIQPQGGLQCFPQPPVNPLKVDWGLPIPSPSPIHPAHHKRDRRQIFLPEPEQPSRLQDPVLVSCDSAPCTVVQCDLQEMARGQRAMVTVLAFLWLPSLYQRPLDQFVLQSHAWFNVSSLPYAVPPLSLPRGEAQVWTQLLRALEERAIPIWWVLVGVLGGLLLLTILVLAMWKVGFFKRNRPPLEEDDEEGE

Tests used:
FGF2 (wild type) [1] = biological target: FGF2 (wild type) (UniProt P09038); assay: ELISA
FGF2 (wild type) [2] = biological target: FGF2 (wild type) (UniProt P09038); assay: ELISA; remark: listed apart in the source

- binding (FGF2 (wild type) [1]): binds
- binding (FGF2 (wild type) [2]): binds
Substance: soluble recombinant integrin αIIbβ3 (ectodomain) (from UniProt P08514 32-993; P05106 27-718) (receptor)

Read-outs that look alike come from different tables or passages of the source. Results are given in words; binding and its absence hold for the method and conditions named. Binding calls can cover weak binding; strength is not graded here.
